Experimental data as given in patent publication US20160199497A1, “Cholesterol Ester-Depleting Nanomedicine for Non-toxic Cancer Chemotherapy” (Purdue Research Foundation, priority 2014, published 2016).
At least one structure is not confirmed: it was looked up by name or label, or the drawing left a doubt.

Tested on: pancreatic cancer cells
Assay: CE level in pancreatic cancer cells (Raman spectromicroscopy, ESI-MS)
Assay type: cell-based, human
Method: Label-free Raman spectromicroscopy, including stimulated Raman scattering (SRS) microscopy, coherent anti-stokes Raman scattering (CARS) microscopy and spontaneous Raman spectroscopy, was performed on unstained tissue slices (˜15 μm) or cells without any processing or labeling. SRS imaging was conducted using a femtosecond laser source, with the laser beating frequency tuned to the C-H stretching vibration mode at 2845 cm−1. The typical acquisition time for a 512×512 pixel image was 1.12 second.
CARS imaging and confocal Raman spectral analysis from individual LDs were performed on a single platform as described previously (40). A 5-picosecond laser at 707 nm was used as excitation beam for Raman spectral acquisition. Acquisition time for a typical spectra from individual LDs was 20 s, with the beam power maintained around 15 mW at sample. For each specimen, at least 10 spectra from individual LDs in different locations or cells were obtained.
LD amount was quantified based on the SRS images using software ImageJ. […] Area fraction of LDs out of total area of tissues or cells were measured to quantize the LD amount. […] The percentage of CE out of total lipids was used to quantize the CE level.
Lipids were extracted as described above. Cells with indicated treatments were collected and counted. […]

CCC(C)(C)C(=O)O[C@H]1C[C@@H](C)C=C2C=C[C@H](C)[C@H](CC[C@@H]3C[C@@H](O)CC(=O)O3)[C@H]21 [simvastatin]
CE level in pancreatic cancer cells: significantly reduced the CE level
